Reference: PMC9588232
No constants are given. Whether binding was seen depends on the method and setting. In cells and extracts the contact can be indirect. Some binding calls cover weakened binding; strength is not graded here.

Amino acid sequences for entries named in this document (tags omitted).
UniProt Q86WV6: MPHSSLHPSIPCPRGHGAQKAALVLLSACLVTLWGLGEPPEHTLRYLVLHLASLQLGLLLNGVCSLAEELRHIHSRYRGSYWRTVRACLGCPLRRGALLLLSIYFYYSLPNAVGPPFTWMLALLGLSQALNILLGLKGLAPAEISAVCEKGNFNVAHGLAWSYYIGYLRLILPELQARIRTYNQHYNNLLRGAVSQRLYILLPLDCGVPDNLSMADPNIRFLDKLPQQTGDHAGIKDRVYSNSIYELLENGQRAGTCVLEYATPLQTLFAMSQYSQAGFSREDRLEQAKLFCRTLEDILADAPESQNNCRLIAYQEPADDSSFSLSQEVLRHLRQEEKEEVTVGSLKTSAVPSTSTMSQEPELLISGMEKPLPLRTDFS
UniProt P29350: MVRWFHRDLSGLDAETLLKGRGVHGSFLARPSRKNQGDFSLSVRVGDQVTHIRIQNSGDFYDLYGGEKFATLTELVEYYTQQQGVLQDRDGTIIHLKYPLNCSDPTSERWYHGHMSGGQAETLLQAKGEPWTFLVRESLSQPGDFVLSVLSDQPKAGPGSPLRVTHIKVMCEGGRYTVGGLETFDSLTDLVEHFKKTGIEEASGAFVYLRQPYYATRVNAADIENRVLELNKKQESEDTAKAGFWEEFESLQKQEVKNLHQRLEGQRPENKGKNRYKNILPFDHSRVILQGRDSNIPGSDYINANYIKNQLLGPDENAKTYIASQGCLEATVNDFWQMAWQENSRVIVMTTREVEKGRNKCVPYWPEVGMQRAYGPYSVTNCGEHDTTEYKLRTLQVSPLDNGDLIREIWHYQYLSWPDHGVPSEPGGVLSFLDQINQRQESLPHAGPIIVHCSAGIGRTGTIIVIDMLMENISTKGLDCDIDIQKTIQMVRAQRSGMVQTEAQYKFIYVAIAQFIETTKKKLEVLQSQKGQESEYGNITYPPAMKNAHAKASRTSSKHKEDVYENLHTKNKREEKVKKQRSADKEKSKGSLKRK

Target: stimulator of interferon genes (STING) (human (endogenous in ARPE-19)) (UniProt Q86WV6)
Experiment: co-IP; endogenous immunoprecipitation from ARPE-19 cell lysates; supernatants with the antibody at 4 °C overnight, AG beads 2 h at 4 °C, washed with PBS-Tween, western blot; cells exposed to atRAL (7.5 μM, 0, 3, 6, 12 h); also scramble-rLV- and shRNA-SHP-1-rLV-transfected cells with atRAL (7.5 μM, 6 h)

**Q.** Which binding does the source give for “Src-homology 2 domain-containing phosphatase (SHP)-1 (from UniProt P29350 1-595) (enzyme)” here?
**A.** binds
